# The list does not hold the whole screen: it is rich in T/C values a quarter to a half above the control, in often repeated tests (any T/C) and in doses without a T/C. Further doses and runs are listed elsewhere. T/C gives the treated animals as a percentage of the vehicle group. Some entries give survivors of the animals treated and no T/C: the source holds a T/C of zero for them, seemingly a mark for toxic or unscored doses. Some survivor counts are full or nearly so, which does not show that the dose was tolerated: the source hardly ever lists a survival T/C far under the control, and the zero likely stands for such cases as well. Counts of survivors are from the toxicity check (mostly the fifth day) where no day follows; animals may have died later. Schedule codes are those of the source, read here as Q, the interval in days (D) or hours (H), X, the number of doses. For survival time, this PubChem deposit counts one and a half times the control or more as active, and values a quarter to a half above the control carry no call in these data; other NCI protocols may use other cut-offs. Some T/C values carry the count of animals alive at the toxicity check (mostly the fifth day); without a count, all were alive then. Some doses were run more than once; the results are listed from low to high. Where a SMILES comes first, the peptide text is derived from it. [ ]: non-standard residue; d: D form. Tyr(3,5-I2) = N[CH](Cc1cc(I)c(O)c(I)c1)C(=O)O
# Tested on: B6C3F1 mice, B16 melanoma ip, median survival T/C
# Assay: NCI In Vivo Anticancer Drug Screen. Data for tumor model B16 Melanoma (intraperitoneal) in B6C3F1 mice
# Conditions: T/C endpoint: median survival time, higher T/C = longer survival
# How it was run: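 Readout: survival or tumor size in treated mice relative to vehicle controls (T/C). Model uses transplantable tumors grown in mice.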
# [1] = dose: 3.12 mg/kg/injection, schedule: Q01DX009 (ip), vehicle: saline with Tween-80
# [2] = dose: 25.0 mg/kg/injection, schedule: Q01DX009 (ip), vehicle: saline with Tween-80
# [3] = dose: 50.0 mg/kg/injection, schedule: Q01DX009 (ip), vehicle: saline with Tween-80
# [4] = dose: 25.0 mg/kg/injection, schedule: Q01DX009 (ip), vehicle: suspension in saline
# [5] = dose: 50.0 mg/kg/injection, schedule: Q01DX009 (ip), vehicle: suspension in saline
# [6] = dose: 800.0 mg/kg/injection, schedule: Q01DX009 (ip), vehicle: saline
# [7] = dose: 400.0 mg/kg/injection, schedule: Q01DX009 (ip), vehicle: Klucel (hydroxypropylcellulose) (HPC)
# [8] = dose: 200.0 mg/kg/injection, schedule: Q01DX009 (ip), vehicle: Klucel (hydroxypropylcellulose) (HPC)
# [9] = dose: 200.0 mg/kg/injection, schedule: Q01DX009 (ip), vehicle: saline with Tween-80
# [10] = dose: 50.0 mg/kg/injection, schedule: Q01DX009 (ip), vehicle: saline
# [11] = dose: 100.0 mg/kg/injection, schedule: Q01DX009 (ip), vehicle: Klucel (hydroxypropylcellulose) (HPC)
# [12] = dose: 100.0 mg/kg/injection, schedule: Q01DX009 (ip), vehicle: saline with Tween-80
# [13] = dose: 400.0 mg/kg/injection, schedule: Q01DX009 (ip), vehicle: saline with Tween-80
compound,measurement,setting,value
CNC(=O)OCc1c(COC(=O)NC)c(-c2ccc(Cl)c(Cl)c2)n2c1Cc1ccccc1C2,T/C,"dose: 6.25 mg/kg/injection, schedule: Q01DX009 (ip), vehicle: distilled water + Tween-80",136 % of control
same,T/C,"dose: 12.5 mg/kg/injection, schedule: Q01DX009 (ip), vehicle: distilled water + Tween-80",135 % of control
same,T/C,"dose: 25.0 mg/kg/injection, schedule: Q01DX009 (ip), vehicle: distilled water + Tween-80",142 % of control
same,survivor count,"dose: 200.0 mg/kg/injection, schedule: Q01DX009 (ip), vehicle: distilled water + Tween-80",9 of 10
same,survivor count,"dose: 400.0 mg/kg/injection, schedule: Q01DX009 (ip), vehicle: distilled water + Tween-80",10 of 10
CCOC(=O)Nc1cc2c(c(N)n1)N=C(c1ccc(Cl)cc1Cl)CN2,T/C,"dose: 3.0 mg/kg/injection, schedule: Q01DX009 (ip), vehicle: saline with Tween-80",127 % of control
same,T/C,[1],125 % of control
same,T/C,"dose: 6.0 mg/kg/injection, schedule: Q01DX009 (ip), vehicle: saline with Tween-80",125 % of control
same,T/C,"dose: 6.25 mg/kg/injection, schedule: Q01DX009 (ip), vehicle: saline with Tween-80",148 % of control
same,T/C,"dose: 12.0 mg/kg/injection, schedule: Q01DX009 (ip), vehicle: saline with Tween-80",126 and 139 % of control
same,survivor count,"dose: 24.0 mg/kg/injection, schedule: Q01DX009 (ip), vehicle: saline with Tween-80",10 of 10
same,survivor count,[2],8 of 10
same,survivor count,[3],2 of 10
Cn1cnc([N+](=O)[O-])c1Sc1nc(N)nc2c1ncn2C1OC(CO)C(O)C1O (configuration not stated),survivor count,[4],10 of 10
same,survivor count,[5],10 of 10
COC(=O)C(N)Cc1ccc(O)c(O)c1 (configuration not stated),survivor count,"dose: 50.0 mg/kg/injection, schedule: Q08HX120 (ip), vehicle: saline",6 of 6
same,survivor count,"dose: 600.0 mg/kg/injection, schedule: Q01DX012 (ip), vehicle: saline",6 of 10
same,survivor count,"dose: 600.0 mg/kg/injection, schedule: Q01DX024 (ip), vehicle: saline",5 of 10
same,T/C,[6],127 % of control [9 of 10 alive]
same,survivor count,[6],5 of 10
same,survivor count,"dose: 800.0 mg/kg/injection, schedule: Q01DX024 (ip), vehicle: saline",5 of 10
same,survivor count,"dose: 1600.0 mg/kg/injection, schedule: Q01DX009 (ip), vehicle: saline",1 of 10
NC(=O)c1ncn(C2OC(CO)C(O)C2O)c1O (configuration not stated),survivor count,[7],10 of 10
CC(C)C(NC(=O)OC(C)(C)C)C(=O)O (configuration not stated),survivor count,[8],10 of 10
same,survivor count,[7],4 of 9
O=[N+]([O-])c1ccc(N2CCOCC2)c2c1no[n+]2[O-],survivor count,[9],6 of 10
Cc1cc2nc3ccc(N)cc3oc-2cc1=[N+](C)C,survivor count,[10],9 of 10
CSc1ncc2ncn(C3OC(CO)C(O)C3O)c2n1 (configuration not stated),survivor count,[11],10 of 10
same,survivor count,[8],10 of 10
CC(O)CCC(=O)c1ccoc1 (configuration not stated),survivor count,"dose: 40.0 mg/kg/injection, schedule: Q01DX009 (ip), vehicle: saline",0 of 10
same,survivor count,"dose: 80.0 mg/kg/injection, schedule: Q01DX009 (ip), vehicle: saline",0 of 10
COc1ccc2c(c1OC(C)=O)-c1cc(O)cc3c1C(C2)N(C(=O)CN(CCCl)CCCl)CC3 (configuration not stated),survivor count,[2],10 of 10
same,survivor count,[3],6 of 10
CC(C)C(NC(=O)C(F)(F)F)C(=O)O (configuration not stated),survivor count,"dose: 200.0 mg/kg/injection, schedule: Q01DX009 (ip), vehicle: saline",9 of 10
NNC(=S)N/N=C/c1ccccn1,survivor count,[4],8 of 10
same,survivor count,[10],0 of 10
same,survivor count,[5],0 of 10
COC(=O)[C@@]12OC[C@]34[C@H]([C@@H](O)[C@@H]1O)[C@@]1(C)CC(=O)C(O)=C(C)[C@@H]1C[C@H]3OC(=O)[C@H](OC(=O)/C=C(/C)C(C)(C)O)[C@@H]24,T/C,"dose: 1.0 mg/kg/injection, schedule: Q01DX009 (ip), vehicle: saline + alcohol",128 % of control
same,T/C,"dose: 2.0 mg/kg/injection, schedule: Q01DX009 (ip), vehicle: saline + alcohol",131 and 132 % of control
same,T/C,"dose: 4.0 mg/kg/injection, schedule: Q01DX009 (ip), vehicle: saline + alcohol",131 and 137 % of control
same,T/C,"dose: 8.0 mg/kg/injection, schedule: Q01DX009 (ip), vehicle: saline + alcohol",148 % of control
C[Si](C)(C)O/C=C1/CCOC1=O,survivor count,[7],10 of 10
CC(C)(C)OC(=O)NC(Cc1c[nH]c2ccccc12)C(=O)O (configuration not stated),survivor count,"dose: 400.0 mg/kg/injection, schedule: Q01DX009 (ip), vehicle: distilled water + alcohol",10 of 10
O=C(O)C1CCCN1C(=O)OCc1ccccc1 (configuration not stated),survivor count,[11],10 of 10
same,survivor count,[7],7 of 10
"CC(=O)NC(Cc1ccccc1)C(=O)NC(Cc1cc(I)c(O)c(I)c1)C(=O)O (configuration not stated) (Ac-Phe-[Tyr(3,5-I2)]-OH; configuration not given here)",survivor count,[11],10 of 10
same,survivor count,[8],9 of 10
CCN(CC)CCCC(C)Nc1c2ccc(Cl)cc2nc2ccc(OC)cc12 (configuration not stated),T/C,"dose: 60.0 mg/kg/injection, schedule: Q01DX009 (ip), vehicle: Klucel (hydroxypropylcellulose) (HPC)",138 % of control
same,survivor count,"dose: 120.0 mg/kg/injection, schedule: Q01DX009 (ip), vehicle: Klucel (hydroxypropylcellulose) (HPC)",8 of 10
CC(=O)OC1=C(Br)CCc2ccccc21,survivor count,"dose: 50.0 mg/kg/injection, schedule: Q01DX009 (ip), vehicle: DMSO",5 of 7
same,survivor count,"dose: 100.0 mg/kg/injection, schedule: Q01DX009 (ip), vehicle: DMSO",0 of 7
same,survivor count,"dose: 200.0 mg/kg/injection, schedule: Q01DX009 (ip), vehicle: DMSO",1 of 7
O=[N+]([O-])c1ccc(N(CCO)CCO)c2c1no[n+]2[O-],survivor count,[3],10 of 10
same,survivor count,[12],5 of 10
CCNC(=O)OCc1c(COC(=O)NCC)c(-c2ccc(Cl)c(Cl)c2)n2c1CCC2,T/C,"dose: 1.56 mg/kg/injection, schedule: Q01DX009 (ip), vehicle: saline with Tween-80",126 % of control
same,T/C,[1],126 % of control
same,T/C,"dose: 12.5 mg/kg/injection, schedule: Q01DX009 (ip), vehicle: saline with Tween-80",139 % of control
same,survivor count,[2],10 of 10
same,survivor count,[3],9 of 10
same,survivor count,[12],1 of 10
CCOC(=O)c1[nH]c2cccc3c2c1CC(Br)C3=O (configuration not stated),survivor count,[12],5 of 10
same,survivor count,[9],1 of 10
same,survivor count,[13],0 of 10
Nc1n[n+](-c2ccc(Cl)cc2)no1,survivor count,"dose: 50.0 mg/kg/injection, schedule: Q01DX009 (ip), vehicle: water",9 of 10
same,survivor count,"dose: 100.0 mg/kg/injection, schedule: Q01DX009 (ip), vehicle: water",0 of 10
CN(C)CC(O)c1cc2ccccc2c2ccccc12 (configuration not stated),survivor count,[10],7 of 7
O=C(Nc1ccccc1)c1c(O)[nH]c(=O)[nH]c1=O,T/C,[12],125 [8 of 10 alive] and 130 % of control
same,T/C,[9],139 and 140 % of control [9 of 10 alive]
same,survivor count,[13],9 of 10
C(COCCOCC1CO1)OCCOCC1CO1 (configuration not stated),T/C,"dose: 100.0 mg/kg/injection, schedule: Q01DX009 (ip), vehicle: saline",130 % of control
S=C1NCc2cncnc2N1,survivor count,"dose: 25.0 mg/kg/injection, schedule: Q01DX009 (ip), vehicle: Klucel (hydroxypropylcellulose) (HPC)",0 of 10
same,survivor count,"dose: 50.0 mg/kg/injection, schedule: Q01DX009 (ip), vehicle: Klucel (hydroxypropylcellulose) (HPC)",0 of 10

# From PubChem BioAssay AID200 (DTP/NCI, 2004)
